A short description of the series: Odor threshold of perfuming compounds in air.
The mark [1] stands for this setting: Table 10, perfuming compounds having a woody note.
Where [2] appears, read: Table 8, perfuming compounds having a sweet note.
Setting [3] is: Table 9, perfuming compounds having a gourmand note.
[4] abbreviates: perfuming compounds having a fruity note (Table 6).
Setting [5] is: Table 5, perfuming compounds having a green note.
Where [6] appears, read: Table 6, perfuming compounds having a fruity note.

Counter-ions that a name gives are not always drawn.

These results are taken from patent publication US11427783B2, “Perfuming compositions” (Firmenich SA, priority 2016, dated 2022).

For the compound `CCCC(O)CC[C@@H]1[C@@H](C)CCCC1(C)C` (mixture of isomers), the “Odor Threshold (μg/l air)” value under setting [1] worked out at 5.92E−04 μg/l air. Take `CC(=O)O[C@@H]1C(C)(C)CCC[C@]12CC=C(C)C[C@H]2C` (racemic): the “Odor Threshold (μg/l air)” value under setting [1] is 3.79E−03 μg/l air.

Regarding `C/C=C/C(=O)[C@@H]1[C@@H](C)C=CCC1(C)C` (racemic), the “Odor Threshold (μg/l air)” value by setting is: under setting [2], 1.70E−05 μg/l air; under setting [3], 1.70E−05 μg/l air. For the compound `CC(=O)O[C@@H]1CC[C@@H]2C(C)(C)CCC[C@@]2(C)C1` (racemic), the “Odor Threshold (μg/l air)” value under setting [1] amounted to 4.19E−04 μg/l air.

For the compound `CC1CCC2(O1)C(C)(C)CCCC2(C)O` (racemic), the “Odor Threshold (μg/l air)” value under setting [1] came out at 5.15E−04 μg/l air. With `CCC(O)COC1CCCCC1C(C)(C)C` (racemic), the “Odor Threshold (μg/l air)” value under setting [1] was found to be 3.53E−02 μg/l air. Still for that read-out and setting: next, `CCCC(O)CCC1C(C)CCC(C)C1(C)C` (racemic): 4.05E−04 μg/l air. Same read-out and setting: next, `C=C1C2CCC(C)(OCC)C1CCC2(C)C` (racemic): 1.37E−01 μg/l air; `CCC(=CCC1CC=C(C)C1(C)C)CO` (racemic): 7.80E−05 μg/l air.

As to `CCCCCC1(C)CCC(C)(C)C1=O` (racemic), the “Odor Threshold” value under setting [4] was found to be 3.25E−02 μg/l air. Same read-out and setting: next, `CC(C)=CCCC(C)C=O` (racemic): 2.11E−04 μg/l air; `C=CC(C)CC(=O)CC(C)C` (racemic): 2.78E−01 μg/l air.

For the compound `CC1=CCC(CCC(C)C(C)O)C1(C)C` (racemic), the “Odor Threshold (μg/l air)” value under setting [1] is 1.52E−03 μg/l air. The same measure, in the same setting: next, `CC1CCC2C(C)(C)C3CC12CCC3(C)O` (racemic): 3.38E−02 μg/l air; `COC(C)(C)CCCC(C)C(C)O` (racemic): 2.66E−02 μg/l air; `CC(=O)/C(C)=C(/C)C(C)C(C)(C)C` (racemic): 7.24E−02 μg/l air.

Consider `C=C1CCCC(C)(C)C1C(=O)/C=C/C` (racemic), for which the “Odor Threshold (μg/l air)” value by setting is: under setting [2], 3.73E−03 μg/l air; under setting [3], 3.73E−03 μg/l air. Further, under setting [4], the “Odor Threshold” value was 3.73E−03 μg/l air. Consider `CC(=O)C=CC1C(C)CCC(C)C1(C)C` (racemic), for which, under setting [1], the “Odor Threshold (μg/l air)” value was 5.14E−04 μg/l air. As to `C=C1CCCC(C)(C)C1C(=O)OC` (racemic), the “Odor Threshold” value under setting [4] is 5.78E−04 μg/l air. For the compound `CC(=O)OC(C)CC(C)(C)c1ccccc1` (racemic) [(+−)-1,3-DIMETHYL-3-PHENYLBUTYL ACETATE], the “Odor Threshold” value under setting [5] is 1.06E−02 μg/l air. In addition, under setting [6], the “Odor Threshold (μg/l air)” value stood at 1.06E−02 μg/l air. For the compound `C=CC(C)(CCC=C(C)C)OC(C)=O` (racemic) [(+−)-1,5-DIMETHYL-1-VINYL-4-HEXENYL ACETATE], the “Odor Threshold” value under setting [5] is listed as 7.40E−02 μg/l air and the “Odor Threshold” value under setting [4] is 7.40E−02 μg/l air. As to `CCCC(S)CCOC` (racemic) [(+−)-1-METHOXY-3-HEXANETHIOL], under setting [5], the “Odor Threshold” value stood at 1.92E−07 μg/l air. As to `C=CC(CCCCC)OC(C)=O` (racemic) [(+−)-1-PENTYL-2-PROPENYL ACETATE], the “Odor Threshold” value under setting [4] was 4.84E−02 μg/l air. Same read-out and setting: next, `CC(=O)OC(C)c1ccccc1` (racemic) [(+−)-1-PHENYLETHYL ACETATE]: 4.43E−02 μg/l air.

For `C=CC(O)CCCCC` (racemic) [(+−)-1-octen-3-ol], the “Odor Threshold” value under setting [5] amounted to 1.77E−03 μg/l air.

On to `CC(=O)OC(c1ccccc1)C(Cl)(Cl)Cl` (racemic) [(+−)-2,2,2-TRICHLORO-1-PHENYLETHYL ACETATE], for which the “Odor Threshold (μg/l air)” value under setting [6] was 1.15E−03 μg/l air. Take `CCCCCC1CCCC1O` (racemic) [(+−)-2-PENTYL-1-CYCLOPENTANOL]: under setting [2], the “Odor Threshold (μg/l air)” value was 5.43E−03 μg/l air. As to `CCC(C)C(=O)OCCc1ccccc1` (racemic) [(+−)-2-PHENYLETHYL 2-METHYLBUTANOATE], the “Odor Threshold (μg/l air)” value under setting [6] came out at 8.56E−03 μg/l air. Regarding `CCCCCC1CCCC1=O` (racemic) [(+−)-2-pentylcyclopentanone], the “Odor Threshold (μg/l air)” value worked out at 1.28E−03 μg/l air under setting [2] and 1.28E−03 μg/l air under setting [3]. For the same compound, the “Odor Threshold” value under setting [4] is on record as 1.28E−03 μg/l air. Turning to `CC(CO)c1ccccc1` (racemic) [(+−)-2-phenyl-1-propanol], under setting [5], the “Odor Threshold” value was determined as 3.62E−02 μg/l air. As to `CCCCCC(C#N)CCC` (racemic) [(+−)-2-propylheptanenitrile], the “Odor Threshold” value under setting [4] came to 7.83E−02 μg/l air. For `CC(CC=O)CC(C)(C)C` (racemic) [(+−)-3,5,5-TRIMETHYLHEXANAL], the “Odor Threshold” value under setting [5] was found to be 9.37E−03 μg/l air. With `CC(C)=CCCC(C)CCOC=O` (racemic) [(+−)-3,7-DIMETHYL-6-OCTENYL FORMATE], the “Odor Threshold” value by setting is: under setting [5], 1.72E−03 μg/l air; under setting [4], 1.72E−03 μg/l air. As to `C=CC(C)(O)CCC=C(C)C` (racemic) [(+−)-3,7-dimethyl-1,6-octadien-3-ol], the “Odor Threshold” value under setting [4] turned out to be 8.89E−05 μg/l air. On to `CC(C)c1cccc(C(C)CC=O)c1` (racemic) [(+−)-3-(3-ISOPROPYL-1-PHENYL)BUTANAL], for which the “Odor Threshold” value under setting [5] is listed as 7.71E−04 μg/l air. On the same count and under the same terms, the same measure for `COc1ccc(CC(C)C=O)cc1` (racemic) [(+−)-3-(4-methoxyphenyl)-2-methylpropanal]: 9.79E−03 μg/l air. As for `CC(=O)C(C)O` (racemic) [(+−)-3-HYDROXY-2-BUTANONE], under setting [5], the “Odor Threshold” value is recorded as 1.46E−02 μg/l air. The “Odor Threshold (μg/l air)” value was 1.46E−02 μg/l air under setting [2] and 1.46E−02 μg/l air under setting [3]. Take `CC(CC=O)c1ccccc1` (racemic) [(+−)-3-PHENYLBUTANAL]: the “Odor Threshold” value under setting [5] is reported as 3.89E−04 μg/l air.

Regarding `CCCC(S)CCOC(C)=O` (racemic) [(+−)-3-mercaptohexyl acetate], the “Odor Threshold” value runs as follows: under setting [5], 2.72E−06 μg/l air; under setting [4], 2.72E−06 μg/l air.

As for `CCCCCCC1CCC(=O)O1` (racemic) [(+−)-4-DECANOLIDE], the “Odor Threshold (μg/l air)” value turned out to be 1.61E−04 μg/l air under setting [6], 1.61E−04 μg/l air under setting [2] and 1.61E−04 μg/l air under setting [3].

On to `CCCC1CCC(=O)O1` (racemic) [(+−)-4-HEPTANOLIDE], for which the “Odor Threshold (μg/l air)” value under setting [2] was determined as 5.18E−04 μg/l air.

In the case of `CCCCCC1CCC(=O)O1` (racemic) [(+−)-4-NONANOLIDE], the “Odor Threshold (μg/l air)” value by setting is: under setting [6], 1.45E−04 μg/l air; under setting [3], 1.45E−04 μg/l air. Consider `CCCCC1CCC(=O)O1` (racemic) [(+−)-4-OCTANOLIDE], for which the “Odor Threshold (μg/l air)” value was 2.32E−05 μg/l air under setting [6] and 2.32E−05 μg/l air under setting [3]. Regarding `CCCCCCCC1CCC(=O)O1` (racemic) [(+−)-5-heptyldihydro-2(3H)-furanone], the “Odor Threshold (μg/l air)” value was determined as 3.16E−05 μg/l air under setting [6], 3.16E−05 μg/l air under setting [2] and 3.16E−05 μg/l air under setting [3].

Turning to `CCCCCCCCC1CCC(=O)O1` (racemic) [(+−)-5-octyldihydro-2(3H)-furanone], the “Odor Threshold (μg/l air)” value under setting [6] stood at 2.85E−05 μg/l air. On to `CCCCCCCC1CCCC(=O)O1` (racemic) [(+−)-6-heptyltetrahydro-2H-pyran-2-one], for which the “Odor Threshold (μg/l air)” value stood at 1.27E−04 μg/l air under setting [6], 1.27E−04 μg/l air under setting [2] and 1.27E−04 μg/l air under setting [3].

For `CCCCCC1CCCC(=O)O1` (racemic) [(+−)-6-pentyltetrahydro-2H-pyran-2-one], the “Odor Threshold (μg/l air)” value under setting [6] amounted to 3.72E−05 μg/l air, the “Odor Threshold (μg/l air)” value under setting [2] was 3.72E−05 μg/l air and the “Odor Threshold (μg/l air)” value under setting [3] is on record as 3.72E−05 μg/l air. In the case of `CCCC1CCCC(=O)O1` (racemic) [(+−)-6-propyltetrahydro-2H-pyran-2-one], the “Odor Threshold (μg/l air)” value under setting [6] is 2.17E−04 μg/l air. As for `COC1(C)CCC23CC1C(C)(C)C2CCC3C` (racemic) [(+−)-8-methoxycedrane], under setting [1], the “Odor Threshold (μg/l air)” value worked out at 2.09E−02 μg/l air. Take `CCOC(C)OC1CCCCCCCCCCC1` (racemic) [(+−)-(1-ethoxyethoxy)cyclododecane]: the “Odor Threshold (μg/l air)” value under setting [1] came to 2.51E−02 μg/l air. Take `COCC(C)Cc1ccccc1` (racemic) [(+−)-(3-methoxy-2-methylpropyl)benzene]: the “Odor Threshold” value under setting [5] turned out to be 1.51E−02 μg/l air and the “Odor Threshold” value under setting [4] amounted to 1.51E−02 μg/l air.

Consider `CC/C=C(\C)C(O)CCCCC` (racemic) [(+−)-(E)-4-METHYL-3-DECEN-5-OL], for which, under setting [5], the “Odor Threshold” value is reported as 6.78E−04 μg/l air. The “Odor Threshold (μg/l air)” value under setting [6] came out at 6.78E−04 μg/l air. `CC/C=C\CCOC(=O)C(C)CC` (racemic) [(+−)-(Z)-3-HEXENYL 2-METHYLBUTANOATE]: the “Odor Threshold” value stood at 1.96E−02 μg/l air under setting [5] and 1.96E−02 μg/l air under setting [4]. In the case of `CC1=CCC(C(C)(C)O)CC1` (racemic) [(+−)-ALPHA-TERPINEOL], under setting [1], the “Odor Threshold (μg/l air)” value was 1.03E−01 μg/l air. For the compound `CCCC(C)C(=O)OCC` (racemic) [(+−)-ETHYL 2-METHYLPENTANOATE], the “Odor Threshold” value under setting [5] is reported as 3.84E−05 μg/l air and the “Odor Threshold” value under setting [4] came out at 3.84E−05 μg/l air. Regarding `CCOC(=O)C(=O)C(C)CC` (racemic) [(+−)-ETHYL 3-METHYL-2-OXOPENTANOATE], the “Odor Threshold” value under setting [5] stood at 5.06E−04 μg/l air. Moreover, under setting [2], the “Odor Threshold (μg/l air)” value came to 5.06E−04 μg/l air. `CCC(C)C(=O)OC(C)C` (racemic) [(+−)-ISOPROPYL 2-METHYLBUTANOATE]: under setting [4], the “Odor Threshold” value is 8.42E−03 μg/l air.

Turning to `CCCCC[C@@H]1OC(=O)C[C@H]1C` (racemic) [(+−)-TRANS-3-METHYL-4-NONANOLIDE], the “Odor Threshold (μg/l air)” value under setting [6] amounted to 8.33E−04 μg/l air, the “Odor Threshold (μg/l air)” value under setting [2] came out at 8.33E−04 μg/l air and the “Odor Threshold (μg/l air)” value under setting [3] came to 8.33E−04 μg/l air.

Take `CCOC(=O)C(C)CC` (racemic) [(+−)-ethyl 2-methylbutanoate]: the “Odor Threshold” value is 1.26E−04 μg/l air under setting [5] and 1.26E−04 μg/l air under setting [4]. As to `CCCCC(CC)C(=O)OC` (racemic) [(+−)-methyl 2-ethylhexanoate], the “Odor Threshold (μg/l air)” value under setting [1] is listed as 1.74E−01 μg/l air. Moreover, the “Odor Threshold” value under setting [4] came out at 1.74E−01 μg/l air.
